For the test, the target named is 3×FLAG-tagged N-terminus-truncated NS1 protein (amino acids 79–230) of influenza A virus PR8(H1N1) (influenza virus A/PR8/34 (H1N1)) (UniProt P03496). Put plainly: affinity purification with mass spectrometry.

Chains of the proteins cited; added tags and fusions are not shown.
UniProt Q13838: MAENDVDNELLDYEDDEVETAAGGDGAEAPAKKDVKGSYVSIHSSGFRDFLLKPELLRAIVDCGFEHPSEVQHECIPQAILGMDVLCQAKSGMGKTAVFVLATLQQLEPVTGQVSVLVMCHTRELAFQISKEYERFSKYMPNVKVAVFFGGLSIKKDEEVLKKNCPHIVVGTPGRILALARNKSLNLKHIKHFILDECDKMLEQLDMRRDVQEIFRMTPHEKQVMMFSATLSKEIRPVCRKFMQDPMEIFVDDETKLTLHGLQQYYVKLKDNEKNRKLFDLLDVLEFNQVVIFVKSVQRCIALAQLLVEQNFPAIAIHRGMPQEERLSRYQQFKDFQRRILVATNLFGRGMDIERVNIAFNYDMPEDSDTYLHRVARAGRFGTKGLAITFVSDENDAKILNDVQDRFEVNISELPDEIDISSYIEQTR
UniProt Q15208: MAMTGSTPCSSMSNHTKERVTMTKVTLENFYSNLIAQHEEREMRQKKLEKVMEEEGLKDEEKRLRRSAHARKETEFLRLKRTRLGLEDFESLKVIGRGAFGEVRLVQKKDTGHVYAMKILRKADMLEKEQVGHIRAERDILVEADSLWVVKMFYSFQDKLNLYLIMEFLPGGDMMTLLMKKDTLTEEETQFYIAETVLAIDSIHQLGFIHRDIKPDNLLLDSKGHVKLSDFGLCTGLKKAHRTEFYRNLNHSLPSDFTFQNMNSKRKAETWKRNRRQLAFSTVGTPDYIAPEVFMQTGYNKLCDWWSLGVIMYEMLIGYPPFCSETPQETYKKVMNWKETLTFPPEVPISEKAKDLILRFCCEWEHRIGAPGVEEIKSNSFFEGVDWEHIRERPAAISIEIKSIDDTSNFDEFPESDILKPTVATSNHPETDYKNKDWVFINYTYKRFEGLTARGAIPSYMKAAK
UniProt Q92817: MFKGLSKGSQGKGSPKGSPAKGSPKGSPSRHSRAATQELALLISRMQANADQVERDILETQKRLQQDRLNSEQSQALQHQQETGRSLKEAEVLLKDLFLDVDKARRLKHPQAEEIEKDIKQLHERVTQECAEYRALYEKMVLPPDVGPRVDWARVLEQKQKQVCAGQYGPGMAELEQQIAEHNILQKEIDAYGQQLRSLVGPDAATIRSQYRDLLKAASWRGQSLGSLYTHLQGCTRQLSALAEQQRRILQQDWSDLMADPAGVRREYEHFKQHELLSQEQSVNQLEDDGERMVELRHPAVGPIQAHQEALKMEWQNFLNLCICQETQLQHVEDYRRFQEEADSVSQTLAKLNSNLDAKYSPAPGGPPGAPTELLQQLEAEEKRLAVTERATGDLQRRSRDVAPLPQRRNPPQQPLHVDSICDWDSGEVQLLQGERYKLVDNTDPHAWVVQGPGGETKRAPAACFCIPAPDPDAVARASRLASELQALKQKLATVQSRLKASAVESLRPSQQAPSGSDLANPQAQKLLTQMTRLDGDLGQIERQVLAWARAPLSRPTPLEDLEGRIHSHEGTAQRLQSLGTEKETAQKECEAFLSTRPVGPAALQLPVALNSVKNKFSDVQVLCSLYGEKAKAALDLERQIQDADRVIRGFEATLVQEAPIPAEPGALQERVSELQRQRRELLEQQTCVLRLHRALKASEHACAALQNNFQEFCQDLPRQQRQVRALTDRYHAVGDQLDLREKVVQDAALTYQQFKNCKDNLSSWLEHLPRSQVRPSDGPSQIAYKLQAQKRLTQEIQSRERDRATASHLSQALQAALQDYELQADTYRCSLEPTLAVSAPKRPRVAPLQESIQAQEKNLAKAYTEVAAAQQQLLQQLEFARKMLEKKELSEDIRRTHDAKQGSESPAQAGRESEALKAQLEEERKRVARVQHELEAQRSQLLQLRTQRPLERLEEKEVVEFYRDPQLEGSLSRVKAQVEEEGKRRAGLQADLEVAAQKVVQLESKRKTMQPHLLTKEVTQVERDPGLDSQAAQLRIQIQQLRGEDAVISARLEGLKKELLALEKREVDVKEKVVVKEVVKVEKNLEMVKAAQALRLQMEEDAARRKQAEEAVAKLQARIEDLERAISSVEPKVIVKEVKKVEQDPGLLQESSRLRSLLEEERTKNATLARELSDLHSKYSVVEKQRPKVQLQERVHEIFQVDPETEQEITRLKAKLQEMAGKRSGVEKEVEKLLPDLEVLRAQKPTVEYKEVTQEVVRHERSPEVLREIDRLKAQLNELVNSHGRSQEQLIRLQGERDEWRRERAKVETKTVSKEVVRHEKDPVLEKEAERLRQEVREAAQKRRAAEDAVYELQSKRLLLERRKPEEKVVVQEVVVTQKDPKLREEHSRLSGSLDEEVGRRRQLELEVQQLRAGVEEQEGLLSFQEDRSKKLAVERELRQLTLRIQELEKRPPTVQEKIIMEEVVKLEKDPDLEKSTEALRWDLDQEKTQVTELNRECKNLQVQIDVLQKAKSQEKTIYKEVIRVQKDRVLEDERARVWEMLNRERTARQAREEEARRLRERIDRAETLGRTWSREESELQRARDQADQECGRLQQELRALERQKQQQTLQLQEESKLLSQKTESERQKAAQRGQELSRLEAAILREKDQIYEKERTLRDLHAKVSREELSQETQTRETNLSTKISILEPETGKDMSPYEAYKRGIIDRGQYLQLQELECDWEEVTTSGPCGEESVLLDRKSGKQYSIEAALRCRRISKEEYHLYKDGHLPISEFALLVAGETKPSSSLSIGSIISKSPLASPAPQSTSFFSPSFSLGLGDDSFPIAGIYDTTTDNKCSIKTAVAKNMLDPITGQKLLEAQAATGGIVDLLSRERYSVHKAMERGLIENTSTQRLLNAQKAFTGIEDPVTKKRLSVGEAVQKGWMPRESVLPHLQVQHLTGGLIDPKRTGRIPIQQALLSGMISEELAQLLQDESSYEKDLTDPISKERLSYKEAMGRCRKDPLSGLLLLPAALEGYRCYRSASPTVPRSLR
UniProt P31947: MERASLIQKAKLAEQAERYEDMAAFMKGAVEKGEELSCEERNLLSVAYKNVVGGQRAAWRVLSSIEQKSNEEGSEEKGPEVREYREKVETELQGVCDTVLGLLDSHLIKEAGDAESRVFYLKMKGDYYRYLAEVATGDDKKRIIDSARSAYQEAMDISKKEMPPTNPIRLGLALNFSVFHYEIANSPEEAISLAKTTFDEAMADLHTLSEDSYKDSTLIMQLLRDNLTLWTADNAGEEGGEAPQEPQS
UniProt O60437: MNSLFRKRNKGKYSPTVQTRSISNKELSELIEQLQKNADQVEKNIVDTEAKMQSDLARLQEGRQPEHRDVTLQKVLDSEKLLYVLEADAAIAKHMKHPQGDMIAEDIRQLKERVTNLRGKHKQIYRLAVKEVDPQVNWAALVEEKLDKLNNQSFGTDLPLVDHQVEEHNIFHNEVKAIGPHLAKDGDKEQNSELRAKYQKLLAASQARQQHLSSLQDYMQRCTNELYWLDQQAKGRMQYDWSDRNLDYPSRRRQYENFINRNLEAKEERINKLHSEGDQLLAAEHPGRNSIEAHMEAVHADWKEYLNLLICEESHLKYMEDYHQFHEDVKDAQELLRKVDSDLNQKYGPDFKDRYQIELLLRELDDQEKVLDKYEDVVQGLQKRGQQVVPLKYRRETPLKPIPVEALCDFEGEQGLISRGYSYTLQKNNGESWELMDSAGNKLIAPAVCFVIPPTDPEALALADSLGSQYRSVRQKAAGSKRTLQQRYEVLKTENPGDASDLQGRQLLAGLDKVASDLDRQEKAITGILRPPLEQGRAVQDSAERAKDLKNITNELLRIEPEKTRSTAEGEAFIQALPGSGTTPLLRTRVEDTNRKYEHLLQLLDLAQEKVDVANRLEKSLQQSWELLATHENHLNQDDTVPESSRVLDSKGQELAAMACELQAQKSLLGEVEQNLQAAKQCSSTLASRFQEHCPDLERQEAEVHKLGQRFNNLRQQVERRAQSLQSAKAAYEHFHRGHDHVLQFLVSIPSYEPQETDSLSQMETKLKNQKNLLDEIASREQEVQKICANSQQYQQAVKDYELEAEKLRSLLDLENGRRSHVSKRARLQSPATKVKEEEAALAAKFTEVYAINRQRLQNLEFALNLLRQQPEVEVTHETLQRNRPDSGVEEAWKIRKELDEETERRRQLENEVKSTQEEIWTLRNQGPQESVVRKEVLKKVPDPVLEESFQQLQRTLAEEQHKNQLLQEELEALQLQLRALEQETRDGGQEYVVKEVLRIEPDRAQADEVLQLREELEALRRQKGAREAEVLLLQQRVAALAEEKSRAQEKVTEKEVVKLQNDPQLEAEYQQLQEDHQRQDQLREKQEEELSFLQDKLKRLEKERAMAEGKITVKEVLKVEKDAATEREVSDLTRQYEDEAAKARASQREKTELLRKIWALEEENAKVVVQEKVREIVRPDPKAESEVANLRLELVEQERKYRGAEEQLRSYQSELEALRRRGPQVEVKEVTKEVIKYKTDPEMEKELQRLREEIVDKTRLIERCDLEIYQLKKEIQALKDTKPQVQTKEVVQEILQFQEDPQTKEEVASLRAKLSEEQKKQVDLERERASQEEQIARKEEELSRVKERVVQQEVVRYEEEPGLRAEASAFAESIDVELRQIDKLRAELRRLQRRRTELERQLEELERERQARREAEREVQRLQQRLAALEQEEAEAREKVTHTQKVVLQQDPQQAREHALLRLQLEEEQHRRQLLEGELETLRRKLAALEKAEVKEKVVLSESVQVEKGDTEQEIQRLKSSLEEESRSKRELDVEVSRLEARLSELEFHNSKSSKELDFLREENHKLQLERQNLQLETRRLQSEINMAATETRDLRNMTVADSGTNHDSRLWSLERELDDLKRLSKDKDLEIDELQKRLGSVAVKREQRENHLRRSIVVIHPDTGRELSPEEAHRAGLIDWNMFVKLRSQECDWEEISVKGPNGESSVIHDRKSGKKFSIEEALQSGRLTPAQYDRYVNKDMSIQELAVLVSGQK
UniProt Q9NX07: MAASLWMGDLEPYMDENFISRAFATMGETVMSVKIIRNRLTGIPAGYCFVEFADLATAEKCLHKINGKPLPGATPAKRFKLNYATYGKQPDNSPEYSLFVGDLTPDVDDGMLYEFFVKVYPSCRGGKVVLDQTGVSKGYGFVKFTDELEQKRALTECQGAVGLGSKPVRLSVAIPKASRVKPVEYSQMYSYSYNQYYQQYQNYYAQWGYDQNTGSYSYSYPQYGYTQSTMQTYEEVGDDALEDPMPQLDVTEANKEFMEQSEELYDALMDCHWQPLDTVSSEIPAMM
UniProt Q9BQE3: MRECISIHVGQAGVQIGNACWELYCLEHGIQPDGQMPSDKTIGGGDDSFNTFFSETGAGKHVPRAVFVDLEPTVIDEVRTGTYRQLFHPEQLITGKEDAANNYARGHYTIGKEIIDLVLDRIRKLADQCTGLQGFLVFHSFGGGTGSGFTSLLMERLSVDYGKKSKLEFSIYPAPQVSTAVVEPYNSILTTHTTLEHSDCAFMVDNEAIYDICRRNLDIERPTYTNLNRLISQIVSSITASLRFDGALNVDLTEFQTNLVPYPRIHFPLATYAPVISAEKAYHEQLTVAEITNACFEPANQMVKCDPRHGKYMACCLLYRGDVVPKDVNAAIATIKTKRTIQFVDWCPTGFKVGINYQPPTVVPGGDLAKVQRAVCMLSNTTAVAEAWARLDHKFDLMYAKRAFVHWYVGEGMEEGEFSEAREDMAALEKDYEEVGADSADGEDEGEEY
UniProt Q9NRX1: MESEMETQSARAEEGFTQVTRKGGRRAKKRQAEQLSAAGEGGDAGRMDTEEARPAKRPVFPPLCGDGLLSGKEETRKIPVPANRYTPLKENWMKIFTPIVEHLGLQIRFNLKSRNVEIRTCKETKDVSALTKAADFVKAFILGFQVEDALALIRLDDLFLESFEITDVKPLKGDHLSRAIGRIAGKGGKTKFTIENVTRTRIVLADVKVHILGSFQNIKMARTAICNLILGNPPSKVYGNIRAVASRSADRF
UniProt Q8WVV4: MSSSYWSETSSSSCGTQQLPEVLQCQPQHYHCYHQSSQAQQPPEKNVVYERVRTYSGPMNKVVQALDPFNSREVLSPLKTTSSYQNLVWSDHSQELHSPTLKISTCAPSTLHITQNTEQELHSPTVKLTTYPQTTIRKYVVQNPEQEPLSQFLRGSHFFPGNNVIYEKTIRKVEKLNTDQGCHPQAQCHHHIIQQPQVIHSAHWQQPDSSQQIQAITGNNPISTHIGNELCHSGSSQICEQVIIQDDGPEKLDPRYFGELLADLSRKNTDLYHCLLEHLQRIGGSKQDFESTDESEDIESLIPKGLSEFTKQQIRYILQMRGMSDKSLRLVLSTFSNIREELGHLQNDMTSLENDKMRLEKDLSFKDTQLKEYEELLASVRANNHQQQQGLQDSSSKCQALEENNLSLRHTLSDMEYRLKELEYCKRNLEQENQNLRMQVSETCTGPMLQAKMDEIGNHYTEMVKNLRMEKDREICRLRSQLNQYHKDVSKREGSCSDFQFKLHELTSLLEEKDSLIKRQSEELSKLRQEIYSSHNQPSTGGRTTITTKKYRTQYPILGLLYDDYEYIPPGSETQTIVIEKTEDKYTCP

No constants are given. Whether binding was seen depends on the method and setting. In cells and extracts the contact can be indirect. A yes stands for co-enrichment or nearness to the bait. Other partners may have been found. Sequences can lack the tags named with a protein.

On to Epiplakin (from UniProt P58107 1-5088), for which the binding entry is listed as “binds”.
Next, “Spliceosome RNA helicase DDX39B (from UniProt Q13838 1-428)”: “binds”.
The value for “Prelamin-A/C (from UniProt P02545 1-646)” was “binds”; that for “Unconventional myosin-Ib (from UniProt O43795 1-1136)” was “binds”.
The value for “Ribosome biogenesis protein NSA2 homolog (from UniProt O95478 1-260)” was “binds”; that for “Inosine-5′-monophosphate dehydrogenase 2 (from UniProt P12268 1-514)” was “binds”.
For the molecule “Serine/threonine-protein kinase 38 (from UniProt Q15208 1-465)”, the binding entry is reported as “binds”.
The value for “Desmoplakin (from UniProt P15924 1-2871)” was “binds”; that for Envoplakin (from UniProt Q92817 1-2033) was “binds”.
Next, “Neuroblast differentiation-associated protein AHNAK (from UniProt Q09666 1-5890)”: “binds”.
Next, “14-3-3 protein sigma (from UniProt P31947 1-248)”: “binds”; Periplakin (from UniProt O60437 1-1756): “binds”.
As for “tRNA selenocysteine 1-associated protein 1 (from UniProt Q9NX07 1-287)”, the binding entry is “binds”.
The value for “Heat shock protein beta-1 (from UniProt P04792 1-205)” was “binds”.
Next, “Tubulin alpha-1C chain (from UniProt Q9BQE3 1-449)”: “binds”; “Filaggrin-2 (from UniProt Q5D862 1-2391)”: “binds”.
Next, “Calmodulin-like protein 5 (from UniProt Q9NZT1 1-146)”: “binds”.
Take Filaggrin (from UniProt P20930 1-4061): the binding entry is on record as “binds”.
Next, “RNA-binding protein PNO1 (from UniProt Q9NRX1 1-252)”: “binds”.
As for “Desmoglein-1 (from UniProt Q02413 50-1049)”, the binding result was “binds”.
The value for “Protein POF1B (from UniProt Q8WVV4 1-589)” was “binds”.

B1: DNA ligase 3 (protein, UniProt P49916 43-1009)
chain: LLHGHPLFLRRKPVLSFQGSHLRSRATYLVFLPGLHVGLCSGPCEMAEQRFCVDYAKRGTAGCKKCKEKIVKGVCRIGKVVPNPFSESGGDMKEWYHIKCMFEKLERARATTKKIEDLTELEGWEELEDNEKEQITQHIADLSSKAAGTPKKKAVVQAKLTTTGQVTSPVKGASFVTSTNPRKFSGFSAKPNNSGEAPSSPTPKRSLSSSKCDPRHKDCLLREFRKLCAMVADNPSYNTKTQIIQDFLRKGSAGDGFHGDVYLTVKLLLPGVIKTVYNLNDKQIVKLFSRIFNCNPDDMARDLEQGDVSETIRVFFEQSKSFPPAAKSLLTIQEVDEFLLRLSKLTKEDEQQQALQDIASRCTANDLKCIIRLIKHDLKMNSGAKHVLDALDPNAYEAFKASRNLQDVVERVLHNAQEVEKEPGQRRALSVQASLMTPVQPMLAEACKSVEYAMKKCPNGMFSEIKYDGERVQVHKNGDHFSYFSRSLKPVLPHKVAHFKDYIPQAFPGGHSMILDSEVLLIDNKTGKPLPFGTLGVHKKAAFQDANVCLFVFDCIYFNDVSLMDRPLCERRKFLHDNMVEIPNRIMFSEMKRVTKALDLADMITRVIQEGLEGLVLKDVKGTYEPGKRHWLKVKKDYLNEGAMADTADLVVLGAFYGQGSKGGMMSIFLMGCYDPGSQKWCTVTKCAGGHDDATLARLQNELDMVKISKDPSKIPSWLKVNKIYYPDFIVPDPKKAAVWEITGAEFSKSEAHTADGISIRFPRCTRIRDDKDWKSATNLPQLKELYQLSKEKADFTVVAGDEGSSTTGGSSEENKGPSGSAVSRKAPSKPSASTKKAEGKLSNSNSKDGNMQTAKPSAMKVGEKLATKSSPVKVGEKRKAADETLCQTKVLLDIFTGVRLYLPPSTPDFSRLRRYFVAFDGDLVQEFDMTSATHVLGSRDKNPAAQQVSPEWIWACIRKRRLVAPC
Take B1: the binding entry is reported as “binds”.

B2: Serpin B3 (protein, UniProt P29508 1-390)
chain: MNSLSEANTKFMFDLFQQFRKSKENNIFYSPISITSALGMVLLGAKDNTAQQIKKVLHFDQVTENTTGKAATYHVDRSGNVHHQFQKLLTEFNKSTDAYELKIANKLFGEKTYLFLQEYLDAIKKFYQTSVESVDFANAPEESRKKINSWVESQTNEKIKNLIPEGNIGSNTTLVLVNAIYFKGQWEKKFNKEDTKEEKFWPNKNTYKSIQMMRQYTSFHFASLEDVQAKVLEIPYKGKDLSMIVLLPNEIDGLQKLEEKLTAEKLMEWTSLQNMRETRVDLHLPRFKVEESYDLKDTLRTMGMVDIFNGDADLSGMTGSRGLVLSGVLHKAFVEVTEEGAEAAAATAVVGFGSSPTSTNEEFHCNHPFLFFIRQNKTNSILFYGRFSSP
With B2, the binding result is “binds”.

B3: Ethylmalonyl-CoA decarboxylase (protein, UniProt Q9NTX5 1-307)
chain: MALKQEMAKSLLKTASLSGRTKLLHQTGLSLYSTSHGFYEEEVKKTLQQFPGGSIDLQKEDNGIGILTLNNPSRMNAFSGVMMLQLLEKVIELENWTEGKGLIVRGAKNTFSSGSDLNAVKSLGTPEDGMAVCMFMQNTLTRFMRLPLISVALVQGWALGGGAEFTTACDFRLMTPESKIRFVHKEMGIIPSWGGTTRLVEIIGSRQALKVLSGALKLDSKNALNIGMVEEVLQSSDETKSLEEAQEWLKQFIQGPPEVIRALKKSVCSGRELYLEEALQNERDLLGTVWGGPANLEAIAKKGKFNK
Take B3: the binding result was “binds”.

B4: Lon protease homolog, mitochondrial (protein, UniProt P36776 68-959)
chain: FWEASSRGGGAFSGGEDASEGGAEEGAGGAGGSAGAGEGPVITALTPMTIPDVFPHLPLIAITRNPVFPRFIKIIEVKNKKLVELLRRKVRLAQPYVGVFLKRDDSNESDVVESLDEIYHTGTFAQIHEMQDLGDKLRMIVMGHRRVHISRQLEVEPEEPEAENKHKPRRKSKRGKKEAEDELSARHPAELAMEPTPELPAEVLMVEVENVVHEDFQVTEEVKALTAEIVKTIRDIIALNPLYRESVLQMMQAGQRVVDNPIYLSDMGAALTGAESHELQDVLEETNIPKRLYKALSLLKKEFELSKLQQRLGREVEEKIKQTHRKYLLQEQLKIIKKELGLEKDDKDAIEEKFRERLKELVVPKHVMDVVDEELSKLGLLDNHSSEFNVTRNYLDWLTSIPWGKYSNENLDLARAQAVLEEDHYGMEDVKKRILEFIAVSQLRGSTQGKILCFYGPPGVGKTSIARSIARALNREYFRFSVGGMTDVAEIKGHRRTYVGAMPGKIIQCLKKTKTENPLILIDEVDKIGRGYQGDPSSALLELLDPEQNANFLDHYLDVPVDLSKVLFICTANVTDTIPEPLRDRMEMINVSGYVAQEKLAIAERYLVPQARALCGLDESKAKLSSDVLTLLIKQYCRESGVRNLQKQVEKVLRKSAYKIVSGEAESVEVTPENLQDFVGKPVFTVERMYDVTPPGVVMGLAWTAMGGSTLFVETSLRRPQDKDAKGDKDGSLEVTGQLGEVMKESARIAYTFARAFLMQHAPANDYLVTSHIHLHVPEGATPKDGPSAGCTIVTALLSLAMGRPVRQNLAMTGEVSLTGKILPVGGIKEKTIAAKRAGVTCIVLPAENKKDFYDLAAFITEGLEVHFVEHYREIFDIAFPDEQAEALAVER
Turning to B4, the binding result was “binds”.

B5: T-complex protein 1 subunit beta (protein, UniProt P78371 1-535)
chain: MASLSLAPVNIFKAGADEERAETARLTSFIGAIAIGDLVKSTLGPKGMDKILLSSGRDASLMVTNDGATILKNIGVDNPAAKVLVDMSRVQDDEVGDGTTSVTVLAAELLREAESLIAKKIHPQTIIAGWREATKAAREALLSSAVDHGSDEVKFRQDLMNIAGTTLSSKLLTHHKDHFTKLAVEAVLRLKGSGNLEAIHIIKKLGGSLADSYLDEGFLLDKKIGVNQPKRIENAKILIANTGMDTDKIKIFGSRVRVDSTAKVAEIEHAEKEKMKEKVERILKHGINCFINRQLIYNYPEQLFGAAGVMAIEHADFAGVERLALVTGGEIASTFDHPELVKLGSCKLIEEVMIGEDKLIHFSGVALGEACTIVLRGATQQILDEAERSLHDALCVLAQTVKDSRTVYGGGCSEMLMAHAVTQLANRTPGKEAVAMESYAKALRMLPTIIADNAGYDSADLVAQLRAAHSEGNTTAGLDMREGTIGDMAILGITESFQVKRQVLLSAAEAAEVILRVDNIIKAAPRKRVPDHHPC
Turning to B5, the binding result is reported as “binds”.

B6: Malate dehydrogenase, mitochondrial (protein, UniProt P40926 25-338)
chain: AKVAVLGASGGIGQPLSLLLKNSPLVSRLTLYDIAHTPGVAADLSHIETKAAVKGYLGPEQLPDCLKGCDVVVIPAGVPRKPGMTRDDLFNTNATIVATLTAACAQHCPEAMICVIANPVNSTIPITAEVFKKHGVYNPNKIFGVTTLDIVRANTFVAELKGLDPARVNVPVIGGHAGKTIIPLISQCTPKVDFPQDQLTALTGRIQEAGTEVVKAKAGAGSATLSMAYAGARFVFSLVDAMNGKEGVVECSFVKSQETECTYFSTPLLLGKKGIEKNLGIGKVSSFEEKMISDAIPELKASIKKGEDFVKTLK
Turning to B6, the binding entry is on record as “binds”.

B7: Involucrin (protein, UniProt P07476 1-585)
chain: MSQQHTLPVTLSPALSQELLKTVPPPVNTHQEQMKQPTPLPPPCQKVPVELPVEVPSKQEEKHMTAVKGLPEQECEQQQKEPQEQELQQQHWEQHEEYQKAENPEQQLKQEKTQRDQQLNKQLEEEKKLLDQQLDQELVKRDEQLGMKKEQLLELPEQQEGHLKHLEQQEGQLKHPEQQEGQLELPEQQEGQLELPEQQEGQLELPEQQEGQLELPEQQEGQLELPEQQEGQLELPQQQEGQLELSEQQEGQLELSEQQEGQLKHLEHQEGQLEVPEEQMGQLKYLEQQEGQLKHLDQQEKQPELPEQQMGQLKHLEQQEGQPKHLEQQEGQLEQLEEQEGQLKHLEQQEGQLEHLEHQEGQLGLPEQQVLQLKQLEKQQGQPKHLEEEEGQLKHLVQQEGQLKHLVQQEGQLEQQERQVEHLEQQVGQLKHLEEQEGQLKHLEQQQGQLEVPEQQVGQPKNLEQEEKQLELPEQQEGQVKHLEKQEAQLELPEQQVGQPKHLEQQEKHLEHPEQQDGQLKHLEQQEGQLKDLEQQKGQLEQPVFAPAPGQVQDIQPALPTKGEVLLPVEHQQQKQEVQWPPKHK
As to B7, the binding entry is listed as “binds”.

B8: Dehydrogenase/reductase SDR family member 4 (protein, UniProt Q9BTZ2 1-278)
chain: MHKAGLLGLCARAWNSVRMASSGMTRRDPLANKVALVTASTDGIGFAIARRLAQDGAHVVVSSRKQQNVDQAVATLQGEGLSVTGTVCHVGKAEDRERLVATAVKLHGGIDILVSNAAVNPFFGSIMDVTEEVWDKTLDINVKAPALMTKAVVPEMEKRGGGSVVIVSSIAAFSPSPGFSPYNVSKTALLGLTKTLAIELAPRNIRVNCLAPGLIKTSFSRMLWMDKEKEESMKETLRIRRLGEPEDCAGIVSFLCSEDASYITGETVVVGGGTPSRL
For the molecule B8, the binding result is recorded as “binds”.

For the origin of these results see paper PMC9321973.
